Source: patent publication US6730486 (INSTITUT NATIONAL DE LA SANTE ET DE LA RECHERCHE MEDICALE, dated 2004)
Results are given in words; binding and its absence hold for the method and conditions named. For part of these data: In cells and extracts the contact can be indirect. Some results given as binding are weak or reduced against the parent protein; the word gives no strength.

Sequences of proteins named here, by UniProt entry; tags and fusion partners are left off. A change or cut given only in a name is not applied to a line headed by its entry. Residues count along the entry.
UniProt P05923, residues 28-81: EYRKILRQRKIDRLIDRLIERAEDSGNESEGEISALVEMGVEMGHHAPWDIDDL
UniProt Q9Y297: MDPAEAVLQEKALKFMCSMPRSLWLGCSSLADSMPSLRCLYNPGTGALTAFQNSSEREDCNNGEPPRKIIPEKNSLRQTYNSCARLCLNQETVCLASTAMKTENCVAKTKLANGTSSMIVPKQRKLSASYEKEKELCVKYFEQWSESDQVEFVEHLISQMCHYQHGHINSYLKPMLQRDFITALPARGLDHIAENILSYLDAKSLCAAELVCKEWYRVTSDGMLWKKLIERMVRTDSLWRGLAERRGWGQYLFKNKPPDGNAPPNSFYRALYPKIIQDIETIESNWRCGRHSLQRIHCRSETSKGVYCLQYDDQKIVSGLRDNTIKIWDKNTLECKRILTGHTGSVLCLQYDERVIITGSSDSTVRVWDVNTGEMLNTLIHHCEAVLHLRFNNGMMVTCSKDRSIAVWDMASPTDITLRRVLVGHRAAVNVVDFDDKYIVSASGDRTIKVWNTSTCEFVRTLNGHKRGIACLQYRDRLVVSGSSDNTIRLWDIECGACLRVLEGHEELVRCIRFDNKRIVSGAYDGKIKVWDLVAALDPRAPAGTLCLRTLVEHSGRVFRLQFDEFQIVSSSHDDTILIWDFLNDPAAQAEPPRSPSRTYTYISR

Columns and labels:
[1] = biological target: cytoplasmic domain of the Vpu protein (Vpuc), amino acid residues 28 to 81 (HIV-1) (UniProt P05923); assay: yeast two-hybrid (His3 and LacZ reporters)
[2] = biological target: cytoplasmic domain of the Vpu protein (Vpuc), amino acid residues 28 to 81 (HIV-1) (UniProt P05923); assay: yeast two-hybrid with deletion mutants
[3] = biological target: cytoplasmic domain of the Vpu protein (Vpuc), amino acid residues 28 to 81 (HIV-1) (UniProt P05923); assay: yeast two-hybrid (βTrCP+Vpuc)
[4] = biological target: Vpu protein (translated in vitro in rabbit reticulocyte lysate, FIG. 3) (HIV-1) (UniProt P05923); assay: co-immunoprecipitation, 15% SDS-PAGE gel
[5] = biological target: cytoplasmic domain of the Vpu protein (Vpuc), amino acid residues 28 to 81 (HIV-1) (UniProt P05923); assay: yeast two-hybrid
[6] = biological target: Vpu protein (translated in vitro in rabbit reticulocyte lysate, FIG. 3) (HIV-1) (UniProt P05923); assay: co-immunoprecipitation after cotranslation in rabbit reticulocyte lysate
[7] = biological target: cytoplasmic domain of the Vpu protein (Vpuc), amino acid residues 28 to 81 (HIV-1) (UniProt P05923); assay: yeast two-hybrid, FIG. 1

Measured: binding

VBP1 (C-terminal region of the h-βTrCP protein, amino acid residues 251 to 569) (from UniProt Q9Y297 287-605)
binds: [1] | [2]

human βTrCP protein (h-βTrCP) (from UniProt Q9Y297 1-605)
binds: all assays above
